These are yes or no findings as the source states them, for the method shown. Binding seen in cells or lysates may run through a third protein. Here binding means that the protein was enriched with, or labelled near, the bait; the list need not be complete.
Target: ARK1-3xHA (Aurora-related kinase 1, endogenously tagged) (Plasmodium berghei)
Experiment: affinity purification with mass spectrometry; anti-HA immunoprecipitation of ARK1-3xHA from activated male-only fd1- gametocytes after incremental formaldehyde cross-linking (0.1% or 1% for 10 min at room temperature, quenched with glycine)

binding: binds
B1: CDPK4 (enzyme, UniProt P62345 1-528)
chain: MGQEMSTQSDMQNENQKGNKRNLKGSQGKNGLKERSTSISKEIVKNSFNNSKLRPGMFIQNSNVVFNEQYKGIKILGKGSFGEVILSKDKHTGHEYAIKVISKKHVKRKTDKQSLLREVELLKMLDHINIMKLYEFFEDNNYYYLVSDVYSGGELFDEIISRKRFYEVDAARIIKQVLSGITYMHKNNVVHRDLKPENILLETKNKEDMIIKIIDFGLSTHFEYSKKMKDKIGTAYYIAPDVLHGTYDEKCDIWSCGVILYILLSGCPPFNGSNEYDILKKVETGKYTFDLPQFKKISDKAKDLIKKMLMYTSAVRISARDALEHEWIRLMTSKDNVNIDIPSLELSITNIKQFQSTQKLAQAALLYMGSKLTTIDETKELTKIFKKMDKNGDGQLDRNELIIGYKELLKLKGDDTTDLDNAAIEVEVDQILSSIDLDQNGYIEYSEFLTVAIDRKLLLSTERLEKAFKLFDKDGSGKISANELAQLFGLGDVSSDCWKTVLKEVDQNNDGEIDFKEFRDMLIKLCNY

Source: PMC13439184
